# Results reported in paper doi:10.1101/2022.04.15.488344 (bioRxiv, 2022).
# Protein sequences, listed by entry. Tags and fused reporters are not part of them.
# UniProt P03372, whole entry: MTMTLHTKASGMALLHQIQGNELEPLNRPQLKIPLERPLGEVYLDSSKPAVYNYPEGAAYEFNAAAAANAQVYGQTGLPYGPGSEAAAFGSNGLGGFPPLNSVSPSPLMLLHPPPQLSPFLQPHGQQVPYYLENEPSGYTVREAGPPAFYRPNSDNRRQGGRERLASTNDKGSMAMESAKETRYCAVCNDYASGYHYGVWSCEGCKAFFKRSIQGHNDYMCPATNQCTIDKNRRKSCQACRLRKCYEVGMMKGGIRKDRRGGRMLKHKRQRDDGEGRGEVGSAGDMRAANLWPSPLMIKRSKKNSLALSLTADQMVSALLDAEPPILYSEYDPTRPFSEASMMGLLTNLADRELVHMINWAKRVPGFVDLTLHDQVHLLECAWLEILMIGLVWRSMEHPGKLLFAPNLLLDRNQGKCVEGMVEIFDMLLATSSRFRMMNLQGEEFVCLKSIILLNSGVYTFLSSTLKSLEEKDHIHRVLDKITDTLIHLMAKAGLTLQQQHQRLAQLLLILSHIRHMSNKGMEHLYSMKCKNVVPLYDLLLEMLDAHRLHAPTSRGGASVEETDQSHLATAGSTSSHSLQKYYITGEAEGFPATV
# No constants are given. Whether binding was seen depends on the method and setting. Some binding calls cover weakened binding; strength is not graded here. Sequences can lack the tags named with a protein.
# Target: T1, αII-Gal4 fusion (peptide αII)
# T1 sequence (peptide): SSLTSRDFGSWYASR
# Experiment: two-hybrid
substance,measurement,value
ERα-VP16 fusion (from UniProt P03372 1-595) (receptor),binding,binds
